PubChem BioAssay AID1259289 | Sanger Institute – 2017

Purpose: 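Kinases that bowel cancer cells need to survive, with or without BYL719, cetuximab, trametinib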 (primary screen)
Cell system: human LS513 colorectal cancer cells
Reagent: siRNA pool against human genes
Treatment: anchor drug BYL719 at 1 µM, cetuximab at 5 µg/ml or trametinib at 10 nM, or DMSO vehicle alone; exposure time not given
Measurement: 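Survival versus non-targeting pool for each arm averaged over replicates, robust z-score in the arm with DMSO only, and synergy scores for BYL719, cetuximab or trametinib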
Direction: robust z-score, siRNA alone (DMSO): higher = more viable cells; strongly negative means essential
Active means: 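Called essential when silencing alone under DMSO gives a robust z-score below -3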
Meaning of the calls: active = essential (knock-down alone); inactive = not essential
In all, the deposit lists 794 reagents; shown is a part drawn at random. Over the whole deposit, 16 (2%) got an active call. 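Active marks cell loss from silencing alone; drug synergy shows only in the synergy scores, not the calls.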 A number with no mark means an inactive call. Further read-outs or replicates are left out here. Not given: the amount of reagent, the time to read-out.

{"gene": "OBSCN", "robust z-score, siRNA alone (DMSO)": 0.561}
{"gene": "BLK", "robust z-score, siRNA alone (DMSO)": 0.561}
{"gene": "HASPIN", "robust z-score, siRNA alone (DMSO)": -0.493}
{"gene": "STK38", "robust z-score, siRNA alone (DMSO)": -1.14}
{"gene": "TEC", "robust z-score, siRNA alone (DMSO)": 0.561}
{"gene": "DNMT3A", "robust z-score, siRNA alone (DMSO)": 0.503}
{"gene": "ERN2", "robust z-score, siRNA alone (DMSO)": 0.317}
{"gene": "CDK14", "robust z-score, siRNA alone (DMSO)": 0.561}
{"gene": "MVK", "robust z-score, siRNA alone (DMSO)": 0.561}
{"gene": "COASY", "robust z-score, siRNA alone (DMSO)": 0.091}
{"gene": "PTPN11", "robust z-score, siRNA alone (DMSO)": 0.561}
{"gene": "MPP1", "robust z-score, siRNA alone (DMSO)": 0.336}
{"gene": "GUCY2EP", "robust z-score, siRNA alone (DMSO)": 0.561}
{"gene": "BCR", "robust z-score, siRNA alone (DMSO)": 0.114}
{"gene": "PIK3R5", "robust z-score, siRNA alone (DMSO)": 0.489}
{"gene": "SBK1", "robust z-score, siRNA alone (DMSO)": 0.561}
{"gene": "SRP72", "robust z-score, siRNA alone (DMSO)": -2.31}
{"gene": "FLT3", "robust z-score, siRNA alone (DMSO)": 0.187}
{"gene": "PTK6", "robust z-score, siRNA alone (DMSO)": 0.561}
{"gene": "NR2F2", "robust z-score, siRNA alone (DMSO)": 0.561}
{"gene": "NLK", "robust z-score, siRNA alone (DMSO)": -0.25}

6 entries already listed, arranged by “robust z-score, siRNA alone (DMSO)”, low to high:
{"gene": "BCR", "robust z-score, siRNA alone (DMSO)": 0.114}
{"gene": "MPP1", "robust z-score, siRNA alone (DMSO)": 0.336}
{"gene": "PIK3R5", "robust z-score, siRNA alone (DMSO)": 0.489}
{"gene": "PTPN11", "robust z-score, siRNA alone (DMSO)": 0.561}
{"gene": "GUCY2EP", "robust z-score, siRNA alone (DMSO)": 0.561}
{"gene": "SBK1", "robust z-score, siRNA alone (DMSO)": 0.561}

Additional records follow.
{"gene": "NEK9", "robust z-score, siRNA alone (DMSO)": 0.28}
{"gene": "CRKL", "robust z-score, siRNA alone (DMSO)": 0.561}
{"gene": "MARK4", "robust z-score, siRNA alone (DMSO)": 0.393}
{"gene": "MYO3B", "robust z-score, siRNA alone (DMSO)": 0.198}
{"gene": "FES", "robust z-score, siRNA alone (DMSO)": -1.37}
{"gene": "PDPK1", "robust z-score, siRNA alone (DMSO)": -0.113}
{"gene": "IKBKG", "robust z-score, siRNA alone (DMSO)": -0.716}
{"gene": "EPHB3", "robust z-score, siRNA alone (DMSO)": -0.792}
{"gene": "CSNK2B", "robust z-score, siRNA alone (DMSO)": 0.561}
{"gene": "MKNK2", "robust z-score, siRNA alone (DMSO)": 0.561}
{"gene": "ITK", "robust z-score, siRNA alone (DMSO)": 0.561}
{"gene": "STK33", "robust z-score, siRNA alone (DMSO)": 0.399}
{"gene": "STKLD1", "robust z-score, siRNA alone (DMSO)": -0.756}
{"gene": "SPHK1", "robust z-score, siRNA alone (DMSO)": 0.291}
{"gene": "CSNK2A1", "robust z-score, siRNA alone (DMSO)": 0.561}
